Assay results published in US20170022258A1, “PEPTIDES FOR USE IN THE TREATMENT OF IL-1 RELATED DISEASES AND CONDITIONS” (C4M PHARMACEUTICALS PTY LTD., priority 2011, published 2017).
Not every detail of the peptide structures is certain; ends, links or a residue may be inferred. At least one structure is not confirmed: it was looked up by name or label, or the drawing left a doubt. Non-standard residues stand in square brackets, D forms with d. Residues, ends and D or L forms follow the SMILES beside them.

Target: T1, IL-1 receptor (Homo sapiens, UniProt P14778)
T1 construct: confluent human monocytes, which express the IL-1 receptor; endogenous in cells; host or cells: human monocytes
T1 sequence (P14778 18-569): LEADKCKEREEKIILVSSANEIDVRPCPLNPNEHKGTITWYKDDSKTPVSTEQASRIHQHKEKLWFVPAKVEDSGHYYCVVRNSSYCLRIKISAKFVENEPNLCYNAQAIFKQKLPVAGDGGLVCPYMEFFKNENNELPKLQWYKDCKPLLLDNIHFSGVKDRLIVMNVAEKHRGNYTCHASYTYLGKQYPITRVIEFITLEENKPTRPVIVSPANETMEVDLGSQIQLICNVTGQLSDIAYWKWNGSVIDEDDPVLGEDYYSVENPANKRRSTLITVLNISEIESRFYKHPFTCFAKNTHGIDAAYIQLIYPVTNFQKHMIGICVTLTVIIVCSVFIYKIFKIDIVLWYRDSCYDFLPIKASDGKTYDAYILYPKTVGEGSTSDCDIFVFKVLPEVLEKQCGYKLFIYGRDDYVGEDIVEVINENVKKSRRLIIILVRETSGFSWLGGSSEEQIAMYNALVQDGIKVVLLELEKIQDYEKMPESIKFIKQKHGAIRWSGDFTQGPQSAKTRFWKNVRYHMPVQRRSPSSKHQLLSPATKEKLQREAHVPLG
Experiment: Radioligand competition binding assay (125I-labeled IL-1α) on human monocytes
Settings: IL-1 binding antagonism on human monocytes; average of three measurements and standard error
Procedure: Radioligand competition binding assays were performed in 96-well plates containing confluent human monocytes, which express the IL-1 receptor. Wells were washed three times with binding buffer, and binding buffer was placed in each well. Peptides were resuspended in dimethyl sulfoxide at 20 mM and diluted in binding buffer to the desired starting concentration. Using a Beckman robotic system, five 3-fold dilutions were prepared, and peptide solution was transferred to duplicate receptor-containing wells. To each well, radioactive ^125Iodine-labeled IL-Ia (Amersham) was added to a final concentration of 40 pM, and the plates were placed on a shaking platform at 4° C. for 2 hr. Plates were washed with PBS using a plate washer, and bound ^125I-labeled IL-la was eluted for 10 min with 0.1 M NaOH and counted in a gamma counter. IC50 values were determined by fitting the data to a two-parameter logistic equation. In all cases, nonspecific binding was determined by the addition of 3 μM of recombinant IL-Ia.

Structure (SMILES) | IC50 [nM]
CC[C@H](C)[C@H](NC(=O)CNC(=O)[C@H](CC(C)C)NC(=O)[C@H](Cc1ccccc1)NC(=O)[C@H](CC(C)C)NC(=O)[C@H](C)NC(=O)[C@H](Cc1c[nH]cn1)NC(=O)[C@@H]1CCCN1C(=O)[C@H](CCC(=O)O)NC(=O)[C@@H](NC(=O)[C@@H]1CCCN1C(=O)[C@@H](NC(=O)[C@@H](NC(=O)[C@H](CC(=O)O)NC(=O)[C@@H](NC(=O)[C@H](CCCCN)NC(=O)[C@H](CCC(=O)O)NC(=O)[C@H](CCC(=O)O)NC(=O)[C@H](CC(C)C)NC(=O)[C@H](CC(N)=O)NC(=O)[C@@H](NC(=O)[C@H](CC(N)=O)NC(=O)[C@@H]1CCCN1C(=O)CNC(=O)[C@H](CCC(N)=O)NC(=O)[C@H](CC(C)C)NC(=O)[C@H](Cc1ccc(O)cc1)NC(=O)CNC(=O)[C@H](C)NC(=O)[C@@H](NC(=O)[C@H](CC(C)C)NC(=O)[C@H](CCC(N)=O)NC(=O)[C@H](CC(N)=O)NC(=O)[C@H](CC(N)=O)NC(C)=O)C(C)C)C(C)C)[C@@H](C)CC)C(C)C)C(C)C)[C@@H](C)CC)C(=O)N[C@@H](Cc1c[nH]cn1)C(=O)NCC(=O)NCC(=O)N[C@@H](CCCCN)C(=O)O [SEQ ID NO. 5] (Ac-NNQLVAGYLQGPNVNLEEKIDVVPIEPHALFLGIHGGK-OH) | > 10000
CC(=O)N[C@H](CC(C)C)C(=O)N1CCC[C@@H]1C(=O)N[C@H](CC(C)C)C(=O)N[C@H](C)C(=O)N[C@H](Cc1ccc(O)cc1)C(=O)N1CCC[C@@H]1C(=O)N[C@H](CCC(N)=O)C(=O)N[C@H](Cc1c[nH]c2ccccc12)C(=O)N[C@H](Cc1ccc(O)cc1)C(=O)NCC(=O)N1CCC[C@@H]1C(=O)N[C@@H](C(=O)N[C@H](Cc1c[nH]c2ccccc12)C(=O)N[C@H](CCC(=O)O)C(=O)N[C@H](Cc1ccccc1)C(=O)O)[C@H](C)O [SEQ ID NO. 4, Ac-LPLAYPQWYGPTWEF] (Ac-[dL][dP][dL][dA][dY][dP][dQ][dW][dY]G[dP][dT][dW][dE][dF]-OH; C-terminus assumed) | 6.9
